# According to patent US8852876B2, “Label free biosensors and cells” (Corning Incorporated, priority 2008, dated 2014):
# For at least one compound, name, drawing or mass did not settle the structure. Some entries repeat one wording, which the source may state once for all of them.
# Test system: endogenous GPCRs in A431 cells
# Test: DMR optical biosensor profiling of GPCR agonists
# Assay type: cell-based, human
# Conditions: quiescent A431; first class = Gq-type, second = Gs-type, third = Gi-type, fourth = no significant DMR
smiles,measurement,value
CC(C)C[C@H](NC(=O)[C@H](CCCCN)NC(=O)[C@H](CCCN=C(N)N)NC(=O)[C@H](C)NC(=O)[C@H](CO)NC(=O)[C@H](CCCCN)NC(=O)[C@H](CCCN=C(N)N)NC(=O)[C@H](C)NC(=O)CNC(=O)[C@@H](NC(=O)[C@H](Cc1ccccc1)NC(=O)CNC(=O)CNC(=O)[C@@H](N)Cc1ccccc1)[C@@H](C)O)C(=O)N[C@@H](C)C(=O)N[C@@H](CC(N)=O)C(=O)N[C@@H](CCC(N)=O)C(=O)O [nociceptin],Class of optical signature (DMR) induced by agonist,did not exhibited any significant DMR signals
